For three substances, binding results are on record in article PMC8842248.

Protein sequences, listed by entry. Tags and fused reporters are not part of them.
UniProt P84085: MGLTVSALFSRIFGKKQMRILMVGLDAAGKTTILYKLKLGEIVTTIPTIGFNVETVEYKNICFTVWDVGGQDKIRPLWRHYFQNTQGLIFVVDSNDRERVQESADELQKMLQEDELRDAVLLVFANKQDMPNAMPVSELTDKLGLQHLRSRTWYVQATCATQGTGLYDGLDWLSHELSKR
UniProt P36404: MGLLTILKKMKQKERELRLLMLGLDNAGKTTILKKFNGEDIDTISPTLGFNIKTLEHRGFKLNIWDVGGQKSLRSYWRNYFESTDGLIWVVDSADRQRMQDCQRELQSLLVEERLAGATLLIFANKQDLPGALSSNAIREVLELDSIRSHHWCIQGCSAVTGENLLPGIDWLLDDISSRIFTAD
UniProt P36405: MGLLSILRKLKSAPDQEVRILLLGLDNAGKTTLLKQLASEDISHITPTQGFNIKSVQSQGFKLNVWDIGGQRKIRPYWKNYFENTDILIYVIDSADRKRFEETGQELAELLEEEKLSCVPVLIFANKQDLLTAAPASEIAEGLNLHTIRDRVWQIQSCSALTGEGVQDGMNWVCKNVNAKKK

The test has as its target PDE6D SPR3 (PDE6D with a double His8-tag, vector pBDDB-SPR3) (UniProt O43924). As to the kind of experiment: affinity purification with mass spectrometry; 20 mg His-tagged PDE6D SPR3 added to HEK293F cells at lysis; nickel column, TEV, reverse nickel, Superdex 75; bands other than PDE6D cut from SDS-PAGE for proteomic mass spectrometry; only the target purified.

Results are given in words; binding and its absence hold for the method and conditions named. Binding seen in cells or lysates may run through a third protein. A yes stands for co-enrichment or nearness to the bait. Other partners may have been found.

As to “ARF5 (ADP-ribosylation factor 5), endogenous in HEK293F cells (from UniProt P84085 1-180)”, the binding result is “binds”.

Take “ARL2, endogenous in HEK293F cells (from UniProt P36404 1-184)”: the binding result is given as “binds”.

In the case of “ARL3, endogenous in HEK293F cells (from UniProt P36405 1-182)”, the binding entry is recorded as “binds”.
